The text below walks through data of article PMC10237644.

Test [1] concerns the target T1, Puf3-Flag (C-terminal Flag tag) (S. cerevisiae) (UniProt Q07807).
T1 sequence: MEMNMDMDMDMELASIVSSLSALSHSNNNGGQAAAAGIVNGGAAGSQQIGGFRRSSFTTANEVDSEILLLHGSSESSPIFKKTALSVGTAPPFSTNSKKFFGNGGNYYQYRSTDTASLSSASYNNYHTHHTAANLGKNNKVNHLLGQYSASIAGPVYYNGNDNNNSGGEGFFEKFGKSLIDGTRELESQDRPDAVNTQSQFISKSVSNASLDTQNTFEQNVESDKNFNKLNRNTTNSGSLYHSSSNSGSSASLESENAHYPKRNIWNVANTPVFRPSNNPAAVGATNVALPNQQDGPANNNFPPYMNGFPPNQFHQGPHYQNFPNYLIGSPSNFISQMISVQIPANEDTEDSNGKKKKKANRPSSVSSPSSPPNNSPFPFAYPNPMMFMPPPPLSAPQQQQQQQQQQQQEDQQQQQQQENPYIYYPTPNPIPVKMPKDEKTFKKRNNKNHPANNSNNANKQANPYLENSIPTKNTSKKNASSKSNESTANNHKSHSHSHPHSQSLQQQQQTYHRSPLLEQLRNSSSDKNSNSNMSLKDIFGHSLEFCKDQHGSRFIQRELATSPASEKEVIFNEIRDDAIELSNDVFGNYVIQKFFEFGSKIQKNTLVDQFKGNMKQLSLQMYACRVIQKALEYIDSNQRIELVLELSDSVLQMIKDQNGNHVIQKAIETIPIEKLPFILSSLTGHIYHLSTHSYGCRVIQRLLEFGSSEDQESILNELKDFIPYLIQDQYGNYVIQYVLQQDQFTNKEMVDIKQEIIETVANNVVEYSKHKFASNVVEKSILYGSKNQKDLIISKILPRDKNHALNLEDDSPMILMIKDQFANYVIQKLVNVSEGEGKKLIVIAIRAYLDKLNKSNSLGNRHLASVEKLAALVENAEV
In words: co-IP; Flag immunoprecipitation of Pbp1-Flag or Puf3-Flag from yeast grown in YPD or switched to YPL for 3 h; beads treated with or without RNase If for 15 min.

The target of test [2] is T1, Puf3-Flag (C-terminal Flag tag) (S. cerevisiae). In words: co-IP; anti-Flag M2 on Dynabeads Protein G added to cleared yeast lysates, 1–2 h at 4°C; lysis buffer 50 mM HEPES pH 7.5, 150 mM NaCl, 10 mM MgCl2, NP-40; wash 50 mM HEPES pH 7.5, 150 mM NaCl, 1 mM EDTA, 0.2% NP-40; HA blot; cells grown in YPD and switched to YPL (time points, mostly 3 h).

No constants are given. Whether binding was seen depends on the method and setting. In cells and extracts the contact can be indirect. Some entries that bind do so weakly or less than the wild type. Where a sequence is shown, tags or fusion partners need not be part of it.

B1: Pbp1-HA (C-terminal HA tag) (protein, UniProt P53297 1-722)
chain: MKGNFRKRDSSTNSRKGGNSDSNYTNGGVPNQNNSSMFYENPEITRNFDDRQDYLLANSIGSDVTVTVTSGVKYTGLLVSCNLESTNGIDVVLRFPRVADSGVSDSVDDLAKTLGETLLIHGEDVAELELKNIDLSLDEKWENSKAQETTPARTNIEKERVNGESNEVTKFRTDVDISGSGREIKERKLEKWTPEEGAEHFDINKGKALEDDSASWDQFAVNEKKFGVKSTFDEHLYTTKINKDDPNYSKRLQEAERIAKEIESQGTSGNIHIAEDRGIIIDDSGLDEEDLYSGVDRRGDELLAALKSNSKPNSNKGNRYVPPTLRQQPHHMDPAIISSSNSNKNENAVSTDTSTPAAAGAPEGKPPQKTSKNKKSLSSKEAQIEELKKFSEKFKVPYDIPKDMLEVLKRSSSTLKSNSSLPPKPISKTPSAKTVSPTTQISAGKSESRRSGSNISQGQSSTGHTTRSSTSLRRRNHGSFFGAKNPHTNDAKRVLFGKSFNMFIKSKEAHDEKKKGDDASENMEPFFIEKPYFTAPTWLNTIEESYKTFFPDEDTAIQEAQTRFQQRQLNSMGNAVPGMNPAMGMNMGGMMGFPMGGPSASPNPMMNGFAAGSMGMYMPFQPQPMFYHPSMPQMMPVMGSNGAEEGGGNISPHVPAGFMAAGPGAPMGAFGYPGGIPFQGMMGSGPSGMPANGSAMHSHGHSRNYHQTSHHGHHNSSTSGHK
On to B1, for which the binding result in test [1] and in test [2] was “binds” in each case.
